Results deposited as PubChem BioAssay AID743121 (NCATS, 2013)
Here is one part, drawn at random, of about 26,000 reagents. In the full data, 167 (0.63%) were called active. 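Calls are per gene from RSA p-values that are not deposited; an individual active-marked siRNA can sensitise only weakly.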 The numbers tell different reagents against one gene apart. Further read-outs or replicates are left out here.

- Aim: 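Partners whose loss is lethal together with topoisomerase I blockade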 (primary screen)
- Cell system: MDA-MB-231 cells, a human breast cancer line
- Knock-down reagent: single siRNA against human genes, 20 nM siRNA (0.8 pmol per well)
- Timing: 120 h (drug added 48 h after transfection, read 72 h later)
- Treatment: camptothecin 20 nM (about EC30) for 72 h; vehicle 0.1% DMSO in parallel plates
- Read-out: 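Cell viability by ATP luminescence (CellTiter-Glo) as % of non-targeting siRNA wells, and the log2 ratio of viability without drug over viability with camptothecin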
- Scale: log2 vehicle/camptothecin viability: higher = stronger sensitisation to camptothecin
- Hit rule: 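Each gene scored by redundant siRNA activity (RSA) over its individual siRNA ratios; a gene is called active at p < 0.001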

For RASD2 (GeneID 23551) #1, the entry reads log2 vehicle/camptothecin viability -0.182; inactive.
With knock-down of RASD2 (GeneID 23551) #2, the record shows log2 vehicle/camptothecin viability -0.125; inactive.
After knock-down of RASD2 (GeneID 23551) #3 the results were log2 vehicle/camptothecin viability 1.04; inactive.
With knock-down of RASD2 (GeneID 23551) #4, the screen gave log2 vehicle/camptothecin viability -0.482; inactive.
IFT27 (GeneID 11020) #1 showed log2 vehicle/camptothecin viability -0.43; inactive.
Against IFT27 (GeneID 11020) #2, the entry reads log2 vehicle/camptothecin viability 0.248; inactive.
IFT27 (GeneID 11020) #3 gave log2 vehicle/camptothecin viability -0.178; inactive.
After knock-down of IFT27 (GeneID 11020) #4 the results were log2 vehicle/camptothecin viability -0.178; inactive.
Against EZH1 (GeneID 2145) #1, the values are log2 vehicle/camptothecin viability 0.13; inactive.
After knock-down of EZH1 (GeneID 2145) #2, the record shows log2 vehicle/camptothecin viability 0.3; inactive.
For EZH1 (GeneID 2145) #3, the entry reads log2 vehicle/camptothecin viability -0.266; inactive.
EZH1 (GeneID 2145) #4 scored log2 vehicle/camptothecin viability 0.0388; inactive.
Silencing of NOL6 (GeneID 65083) #1 resulted in: log2 vehicle/camptothecin viability -0.497; inactive.
Silencing of NOL6 (GeneID 65083) #2 gave: log2 vehicle/camptothecin viability -0.442; inactive.
NOL6 (GeneID 65083) #3 showed log2 vehicle/camptothecin viability -0.314; inactive.
Knock-down of NOL6 (GeneID 65083) #4 came out at: log2 vehicle/camptothecin viability -0.71; inactive.
With knock-down of ADCY6 (GeneID 112) #1, the record shows log2 vehicle/camptothecin viability 0.0458; inactive.
ADCY6 (GeneID 112) #2 scored log2 vehicle/camptothecin viability 0.11; inactive.
Silencing of ADCY6 (GeneID 112) #3 came out at: log2 vehicle/camptothecin viability -0.181; inactive.
With knock-down of ADCY6 (GeneID 112) #4 the results were log2 vehicle/camptothecin viability 0.0437; inactive.

3 of these entries, reformatted:
{"Target gene":"IFT27 (GeneID 11020)","siRNA no.":2,"log2 vehicle/camptothecin viability":0.248,"activity call":"inactive"}
{"Target gene":"IFT27 (GeneID 11020)","siRNA no.":3,"log2 vehicle/camptothecin viability":-0.178,"activity call":"inactive"}
{"Target gene":"IFT27 (GeneID 11020)","siRNA no.":4,"log2 vehicle/camptothecin viability":-0.178,"activity call":"inactive"}

Further records follow.
Depletion of LHX4 (GeneID 89884) #1 resulted in: log2 vehicle/camptothecin viability -0.137; inactive.
LHX4 (GeneID 89884) #2 scored log2 vehicle/camptothecin viability -0.0257; inactive.
With knock-down of LHX4 (GeneID 89884) #3, the screen gave log2 vehicle/camptothecin viability 0.00794; inactive.
LHX4 (GeneID 89884) #4 scored log2 vehicle/camptothecin viability -0.2; inactive.
KCNE2 (GeneID 9992) #1 showed log2 vehicle/camptothecin viability -0.275; inactive.
KCNE2 (GeneID 9992) #2 scored log2 vehicle/camptothecin viability -0.263; inactive.
With knock-down of KCNE2 (GeneID 9992) #3 the results were log2 vehicle/camptothecin viability -0.112; inactive.
Depletion of KCNE2 (GeneID 9992) #4 resulted in: log2 vehicle/camptothecin viability -0.0315; inactive.
Silencing of OR7D4 (GeneID 125958) #1 came out at: log2 vehicle/camptothecin viability -0.495; inactive.
After knock-down of OR7D4 (GeneID 125958) #2 the results were log2 vehicle/camptothecin viability -0.581; inactive.
Against OR7D4 (GeneID 125958) #3 the deposit lists log2 vehicle/camptothecin viability -0.415; inactive.
Depletion of OR7D4 (GeneID 125958) #4 gave: log2 vehicle/camptothecin viability -0.0732; inactive.
Against ASAH1 (GeneID 427) #1 the deposit lists log2 vehicle/camptothecin viability -0.0976; inactive.
Knock-down of ASAH1 (GeneID 427) #2 came out at: log2 vehicle/camptothecin viability -0.307; inactive.
Against ASAH1 (GeneID 427) #3, the values are log2 vehicle/camptothecin viability -0.445; inactive.
With knock-down of ASAH1 (GeneID 427) #4 the results were log2 vehicle/camptothecin viability -0.0783; inactive.
